The list shows only some results of the screen, not a fair sample: it covers a few groups of compounds. Not every dose and run of a compound is shown. T/C: endpoint of the treated group in % of that of the vehicle group. Some entries give survivors of the animals treated and no T/C: the source files T/C as zero there, which appears to mark a toxic dose or a test without result, not a measured value. Some doses without a T/C left all or most animals alive at the check, yet need not have been tolerated: the source hardly ever lists a survival T/C far under the control, and the zero likely stands for such cases as well. Counts of survivors are from the toxicity check (mostly the fifth day) where no day follows; animals may have died later. Schedules are NCI's codes, taken here to give the interval after Q, in days (D) or hours (H), and the number of doses after X. For survival time, the PubChem record calls one and a half times the control and up active, and a quarter to a half above the control has no call in these data; cut-offs in other NCI protocols can differ.

The assay relates to B6C3F1 mice, B16 melanoma ip, median survival T/C. The assay can be described thus: NCI In Vivo Anticancer Drug Screen. Data for tumor model B16 Melanoma (intraperitoneal) in B6C3F1 mice. The settings on record: T/C endpoint: median survival time, vehicle: saline, higher T/C = longer survival. The procedure: The antitumor activity of compounds was measured in mice bearing transplantable tumors. Survival or tumor size were measured and the results are expressed as the measurement made in the treated group (T) divided by the measurement made in the vehicle treated control group (C). The tumor model used in this assay is B16 Melanoma (intraperitoneal) in B6C3F1 mice

With `Nc1ccc(N(CCCl)CCCl)cc1`, the T/C runs as follows: (dose: 0.5 mg/kg/injection, schedule: Q01DX005 (iv)) 105 % of control; (dose: 1.0 mg/kg/injection, schedule: Q01DX005 (iv)) 104 % of control; (dose: 2.0 mg/kg/injection, schedule: Q01DX005 (iv)) 116 % of control; (dose: 25.0 micrograms/kg/injection, schedule: Q01DX009 (ip)) 98 % of control; (dose: 50.0 micrograms/kg/injection, schedule: Q01DX009 (ip)) 98 % of control; (dose: 100.0 micrograms/kg/injection, schedule: Q01DX009 (ip)) 106 % of control. Where the note is “dose: 200.0 micrograms/kg/injection, schedule: Q01DX009 (ip)”, the T/C was 113 % of control. Besides, the survivor count is, setting by setting: (dose: 4.0 mg/kg/injection, schedule: Q01DX005 (iv)) 10 of 10; (dose: 8.0 mg/kg/injection, schedule: Q01DX005 (iv)) 10 of 10.

The record behind these values is PubChem BioAssay AID200 (DTP/NCI, 2004).
